Amino acid sequences for entries named in this document (tags omitted). A change or cut given only in a name is not applied to a line headed by its entry.
UniProt Q6L589: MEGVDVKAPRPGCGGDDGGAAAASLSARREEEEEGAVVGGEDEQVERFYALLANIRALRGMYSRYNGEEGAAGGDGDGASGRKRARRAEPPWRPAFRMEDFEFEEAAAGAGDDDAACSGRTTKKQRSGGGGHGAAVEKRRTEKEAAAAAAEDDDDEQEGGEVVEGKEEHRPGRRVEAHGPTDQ
UniProt B7F924: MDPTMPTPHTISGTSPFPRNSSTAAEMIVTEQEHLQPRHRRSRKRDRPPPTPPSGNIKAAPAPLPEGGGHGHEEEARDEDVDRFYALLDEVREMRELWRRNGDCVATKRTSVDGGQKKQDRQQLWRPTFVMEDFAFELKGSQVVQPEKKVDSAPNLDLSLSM
UniProt Q5QM06: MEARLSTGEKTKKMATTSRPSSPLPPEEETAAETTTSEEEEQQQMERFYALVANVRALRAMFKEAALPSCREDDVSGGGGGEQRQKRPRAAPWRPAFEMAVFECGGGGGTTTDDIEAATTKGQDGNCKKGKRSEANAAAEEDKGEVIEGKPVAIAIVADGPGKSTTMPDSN
UniProt Q5ZEF1: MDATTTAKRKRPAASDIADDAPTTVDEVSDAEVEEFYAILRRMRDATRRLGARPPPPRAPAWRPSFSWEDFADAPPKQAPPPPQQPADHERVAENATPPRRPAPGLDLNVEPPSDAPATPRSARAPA

According to publication PMC4094623:

Assays:
[1] = target: TGAL8 (rice (Nipponbare)); assay: two-hybrid; LexA fusion (written as target) and B42AD fusion (written as binder) in yeast EGY48; beta-galactosidase on X-gal medium, blue colour graded +++ to –; at least three colonies
[2] = target: TGAL9 (rice (Nipponbare)); assay: as above
[3] = target: TGAL2 (rice (Nipponbare)); assay: as above
[4] = target: rTGA2.1 (rice (Nipponbare)); assay: as above
[5] = target: rTGA2.3 (rice (Nipponbare)); assay: as above
[6] = target: TGAL7 (rice (Nipponbare)); assay: as above
RH1 (rice (Nipponbare)) = RH1 (rice (Nipponbare)) (UniProt Q6L589); assay: as above
[7] = target: TGAL11 (rice (Nipponbare)); assay: as above
RH3 (rice (Nipponbare)) = RH3 (rice (Nipponbare)) (UniProt B7F924); assay: as above
[8] = target: TGAL6 (rice (Nipponbare)); assay: as above
[9] = target: TGAL1 (rice (Nipponbare)); assay: as above
[10] = target: TGAL5 (rice (Nipponbare)); assay: as above
RH2 (rice (Nipponbare)) = RH2 (rice (Nipponbare)) (UniProt Q5QM06); assay: as above
rLG2 (rice (Nipponbare)) = assay: as above
[11] = target: rTGA2.2 (rice (Nipponbare)); assay: as above
[12] = target: TGAL4 (rice (Nipponbare)); assay: as above
[13] = target: Negative Regulator of Resistance (NRR) (rice (Nipponbare)) (UniProt Q5ZEF1); assay: as above
[14] = target: rTGA2.2 (split YFP fusion) (rice (Nipponbare)); assay: split reporter; split YFP in rice protoplasts, 5 ug of each plasmid, 24-36 hr after transfection, fluorescence graded +++ to –; the YFPN fusion is written as binder, the YFPC fusion as target
[15] = target: TGAL1 (split YFP fusion) (rice (Nipponbare)); assay: as above
[16] = target: RH1 (split YFP fusion) (rice (Nipponbare)); assay: as above
[17] = target: RH2 (split YFP fusion) (rice (Nipponbare)); assay: as above
[18] = target: rLG2 (split YFP fusion) (rice (Nipponbare)); assay: as above
[19] = target: TGAL5 (split YFP fusion) (rice (Nipponbare)); assay: as above
[20] = target: NRR (split YFP fusion) (rice (Nipponbare)); assay: as above
[21] = target: TGAL4 (split YFP fusion) (rice (Nipponbare)); assay: as above
[22] = target: rTGA2.1 (split YFP fusion) (rice (Nipponbare)); assay: as above
[23] = target: rTGA2.3 (split YFP fusion) (rice (Nipponbare)); assay: as above
[24] = target: RH3 (split YFP fusion) (rice (Nipponbare)); assay: as above
[25] = target: TGAL2 (split YFP fusion) (rice (Nipponbare)); assay: as above

Binder	binding [1]	binding [2]	binding [3]	binding [4]	binding [5]	binding [6]	binding (RH1 (rice (Nipponbare)))	binding [7]	binding (RH3 (rice (Nipponbare)))	binding [8]	binding [9]	binding [10]	binding (RH2 (rice (Nipponbare)))	binding (rLG2 (rice (Nipponbare)))	binding [11]	binding [12]	binding [13]	other results
NH2 (protein, UniProt Q0JJ01 1-635) MPARSAVVVIAMEPSSSITIASSSSYLSNGSSPCSVSLAPPGAGAVAAQAAPVAAGEGGGGGGGGGGGGSSSVEVVSLNRLSANLERLLLDSDLDCSDADVDVADGGPPVPVHRCILAARSTFFYNLFAARGRGGDGAAGGGGGGGGGGGERTGGRPRYKMEELVPGGRVGRDAFLSLLGYLYTGKLRPAPDDVVSCADPMCPHDSCPPAIRFNVEQMYAAWAFKITELISLFQRRLLNFVDKTLVEDVLPILQVAFHSELTPVLEKCIRRIARSNLDNVSLDKELPPEVAVQIKEIRQKSQPNEGDTVISDPVHEKRVRRIHRALDSDDVELVKLLLNESEITLDDANALHYAAAYCDSKVVSELLDLRLANLNLKNSRGYTALHLAAMRREPAIIMCLLNKGAAVSQLTADGQSAMSICRRLTRMKDYNTKMEQGQESNKDRLCIDILDREMIRKPMAVEDSVTSPLLADDLHMKLLYLENRVAFARLFFPAEAKVAMQIAQADTTPEFGIVPAASTSGKLKEVDLNETPVTQNKRLRSRVDALMKTVELGRRYFPNCSQVLDKFLEDDLPDSPDALDLQNGTSDEQNVKRMRFCELKEDVRKAFSKDRADNSMFSILSSSSSSSPPPKVAKK	binds	no binding	binds	binds	binds	binds	binds	binds	binds	binds	binds	binds	binds	binds	binds	binds	binds	–
NH3 (protein, UniProt Q75HA6 1-589) METSTISFSSSSPPSPPPPQPAPGDIDAVSLGRLSRNLENLLDPAFLNCADAEIVLASGGGDPGGGAVVGVHRCILAARSRFFYDHFSSAPAPAPATAGDKPQLDLDGLVPGGRHIGRDALVAVLSYLYTGRLRSAPPEAAACLDDGCSHDACRPAIDFVVESTYAASGFQISELVSLFQRRLSDFVNKALAEDILPILVVASTCHLPELLNQCIQRVANSNLDNRYLEKRLPDDLYAKLKEFRVPDEPHSGILDPEHEKRVRNIHKALDSDDVDLVGMLLKESPVTLDDAFAIHYAAAYCEPKVLAELLKLESANVNLKNSSGYTPLHMACMRREPDIIVSLIEKGASVLERTQDGRDALTICKRLTREKDRNEKSEKCKERSKAYLCIGVLQQEIKRRPQILEDQMSAEESIATPLLVDNFHMRLLNLENRVAFARIFFPSEAKLVMRIAQADSTQEFAGLTSANFSKLKEVDLNETPTMQNRRLRERLDALTKTVELGRRYFPHCSEVLDKFLNEESTDLILLESGTAEDQQTKRMRFSELREDVRKAFTKDKAAGAAISSSTSASSSPRYETKLRPGNKKGKLSR	binds	no binding	binds	binds	binds	binds	binds	binds	binds	binds	binds	binds	binds	binds	binds	binds	binds	–
NH3 (split YFP fusion) (protein, UniProt Q75HA6 1-589) METSTISFSSSSPPSPPPPQPAPGDIDAVSLGRLSRNLENLLDPAFLNCADAEIVLASGGGDPGGGAVVGVHRCILAARSRFFYDHFSSAPAPAPATAGDKPQLDLDGLVPGGRHIGRDALVAVLSYLYTGRLRSAPPEAAACLDDGCSHDACRPAIDFVVESTYAASGFQISELVSLFQRRLSDFVNKALAEDILPILVVASTCHLPELLNQCIQRVANSNLDNRYLEKRLPDDLYAKLKEFRVPDEPHSGILDPEHEKRVRNIHKALDSDDVDLVGMLLKESPVTLDDAFAIHYAAAYCEPKVLAELLKLESANVNLKNSSGYTPLHMACMRREPDIIVSLIEKGASVLERTQDGRDALTICKRLTREKDRNEKSEKCKERSKAYLCIGVLQQEIKRRPQILEDQMSAEESIATPLLVDNFHMRLLNLENRVAFARIFFPSEAKLVMRIAQADSTQEFAGLTSANFSKLKEVDLNETPTMQNRRLRERLDALTKTVELGRRYFPHCSEVLDKFLNEESTDLILLESGTAEDQQTKRMRFSELREDVRKAFTKDKAAGAAISSSTSASSSPRYETKLRPGNKKGKLSR	–	–	–	–	–	–	–	–	–	–	–	–	–	–	–	–	–	binding [14]: binds; binding [15]: binds; binding [16]: binds; binding [17]: binds; binding [18]: binds; binding [19]: binds; binding [20]: binds; binding [21]: binds; binding [22]: binds; binding [23]: binds; binding [24]: binds; binding [25]: binds

Results are given in words; binding and its absence hold for the method and conditions named. For some of these results: Binding can be weak; no strength is given. For some of these results: In cells and extracts the contact can be indirect. For some of these results: Where a sequence is shown, tags or fusion partners need not be part of it.
